Reference: patent US7863293B2, “CXCR4 chemokine receptor binding compounds” (Genzyme Corporation, priority 2003, dated 2011)
Where two headings read alike, the source gives them in different places.

System: CFU-GM, BFU-E and CFU-GEMM progenitor cells
Settings: 80 μg/kg s.c.
Protocol: Five healthy human volunteers having initial white blood cell counts of 4,500-7,500 cells/mm^3 were used in the study. […] Blood samples were obtained via catheter prior to the dose, and at various times up to 24 hours after dosing.
All progenitor cell results are based on the scoring of 3 culture plates per assay per point.
For the progenitor cell numbers and cycling status, the numbers of CFU-GM, BFU-E and CFU-GEMM in methylcellulose cultures by stimulation of the cells with 1 Unit (U)/ml recombinant human (rhu) erythropoietin, 100 U/ml rhu granulocyte-macrophage colony stimulating factor (GM-CSF), 100 U/ml rhu interleukin-3 (IL-3) and 50 ng/ml rhu steel factor (SLF=stem cell factor (SCF)). The CFU-GM were also evaluated in agar cultures stimulated with 100 U/ml rhu GM-CSF and 50 ng/ml rhu SLF. For both types of assays, colonies were scored after 14 day incubation in a humidified atmosphere with 5% CO2 and lowered (5%) O2 tension. Cell cycling status of progenitors was measured using a high specific activity tritiated thymidine kill technique as previously described (Broxmeyer, H. E., et al., Exp. Hematol. (1989) 17:455-459).

SMILES: c1cc(CN2CCCNCCNCCCNCC2)ccc1CN1CCCNCCNCCCNCC1 [AMD3100, 1,1′-[1,4-phenylene-bis(methylene)]-bis-1,4,8,11-tetraazacyclotetradecane]
- Cycling Status of Progenitors, BFU-E (P1, T = 1 hour): 0%
- Cycling Status of Progenitors, CFU-GEMM (P1, T = 1 hour): 0%
- Cycling Status of Progenitors, CFU-GM (P1, T = 1 hour): 1%
- Cycling Status of Progenitors, BFU-E (P1, T = 3 hours): 13%
- Cycling Status of Progenitors, CFU-GEMM (P1, T = 3 hours): 7%
- Cycling Status of Progenitors, CFU-GM (P1, T = 3 hours): 1%
- Cycling Status of Progenitors, BFU-E (P1, T = 6 hours): 0%
- Cycling Status of Progenitors, CFU-GEMM (P1, T = 6 hours): 0%
- Cycling Status of Progenitors, CFU-GM (P1, T = 6 hours): 0%
- Cycling Status of Progenitors, BFU-E (P1, T = 9 hours): 11%
- Cycling Status of Progenitors, CFU-GEMM (P1, T = 9 hours): 0%
- Cycling Status of Progenitors, CFU-GM (P1, T = 9 hours): 2%
- Cycling Status of Progenitors, BFU-E (P1, T = 24 hours): 0%
- Cycling Status of Progenitors, CFU-GEMM (P1, T = 24 hours): 0%
- Cycling Status of Progenitors, CFU-GM (P1, T = 24 hours): 0%
- Cycling Status of Progenitors, BFU-E (P2, T = 1 hour): 3%
- Cycling Status of Progenitors, CFU-GEMM (P2, T = 1 hour): 6%
- Cycling Status of Progenitors, CFU-GM (P2, T = 1 hour): 0%
- Cycling Status of Progenitors, BFU-E (P2, T = 3 hours): 0%
- Cycling Status of Progenitors, CFU-GEMM (P2, T = 3 hours): 0%
- Cycling Status of Progenitors, CFU-GM (P2, T = 3 hours): 2%
- Cycling Status of Progenitors, BFU-E (P2, T = 6 hours): 0%
- Cycling Status of Progenitors, CFU-GEMM (P2, T = 6 hours): 0%
- Cycling Status of Progenitors, CFU-GM (P2, T = 6 hours): 0%
- Cycling Status of Progenitors, BFU-E (P2, T = 9 hours): 0%
- Cycling Status of Progenitors, CFU-GEMM (P2, T = 9 hours): 4%
- Cycling Status of Progenitors, CFU-GM (P2, T = 9 hours): 0%
- Cycling Status of Progenitors, BFU-E (P2, T = 24 hours): 2%
- Cycling Status of Progenitors, CFU-GEMM (P2, T = 24 hours): 0%
- Cycling Status of Progenitors, CFU-GM (P2, T = 24 hours): 3%
- Cycling Status of Progenitors, BFU-E (P3, T = 1 hour): 0%
- Cycling Status of Progenitors, CFU-GEMM (P3, T = 1 hour): 0%
- Cycling Status of Progenitors, CFU-GM (P3, T = 1 hour): 0%
- Cycling Status of Progenitors, BFU-E (P3, T = 3 hours): 0%
- Cycling Status of Progenitors, CFU-GEMM (P3, T = 3 hours): 0%
- Cycling Status of Progenitors, CFU-GM (P3, T = 3 hours): 1%
- Cycling Status of Progenitors, BFU-E (P3, T = 6 hours): 0%
- Cycling Status of Progenitors, CFU-GEMM (P3, T = 6 hours): 0%
- Cycling Status of Progenitors, CFU-GM (P3, T = 6 hours): 0%
- Cycling Status of Progenitors, BFU-E (P3, T = 9 hours): 0%
- Cycling Status of Progenitors, CFU-GEMM (P3, T = 9 hours): 0%
- Cycling Status of Progenitors, CFU-GM (P3, T = 9 hours): 0%
- Cycling Status of Progenitors, BFU-E (P3, T = 24 hours): 0%
- Cycling Status of Progenitors, CFU-GEMM (P3, T = 24 hours): 0%
- Cycling Status of Progenitors, CFU-GM (P3, T = 24 hours): 0%
- Cycling Status of Progenitors, BFU-E (P4, T = 1 hour): 0%
- Cycling Status of Progenitors, CFU-GEMM (P4, T = 1 hour): 0%
- Cycling Status of Progenitors, CFU-GM (P4, T = 1 hour): 0%
- Cycling Status of Progenitors, BFU-E (P4, T = 3 hours): 9%
- Cycling Status of Progenitors, CFU-GEMM (P4, T = 3 hours): 0%
- Cycling Status of Progenitors, CFU-GM (P4, T = 3 hours): 5%
- Cycling Status of Progenitors, BFU-E (P4, T = 6 hours): 0%
- Cycling Status of Progenitors, CFU-GEMM (P4, T = 6 hours): 8%
- Cycling Status of Progenitors, CFU-GM (P4, T = 6 hours): 0%
- Cycling Status of Progenitors, BFU-E (P4, T = 9 hours): 0%
- Cycling Status of Progenitors, CFU-GEMM (P4, T = 9 hours): 0%
- Cycling Status of Progenitors, CFU-GM (P4, T = 9 hours): 0%
- Cycling Status of Progenitors, BFU-E (P4, T = 24 hours): 3%
- Cycling Status of Progenitors, CFU-GEMM (P4, T = 24 hours): 0%
- Cycling Status of Progenitors, CFU-GM (P4, T = 24 hours): 5%
- Cycling Status of Progenitors, BFU-E (P5, T = 1 hour): 0%
- Cycling Status of Progenitors, CFU-GEMM (P5, T = 1 hour): 0%
- Cycling Status of Progenitors, CFU-GM (P5, T = 1 hour): 0%
- Cycling Status of Progenitors, BFU-E (P5, T = 3 hours): 3%
- Cycling Status of Progenitors, CFU-GEMM (P5, T = 3 hours): 0%
- Cycling Status of Progenitors, CFU-GM (P5, T = 3 hours): 5%
- Cycling Status of Progenitors, BFU-E (P5, T = 6 hours): 1%
- Cycling Status of Progenitors, CFU-GEMM (P5, T = 6 hours): 0%
- Cycling Status of Progenitors, CFU-GM (P5, T = 6 hours): 0%
- Cycling Status of Progenitors, BFU-E (P5, T = 9 hours): 0%
- Cycling Status of Progenitors, CFU-GEMM (P5, T = 9 hours): 0%
- Cycling Status of Progenitors, CFU-GM (P5, T = 9 hours): 0%
- Cycling Status of Progenitors, BFU-E (P5, T = 24 hours): 0%
- Cycling Status of Progenitors, CFU-GEMM (P5, T = 24 hours): 0%
- Cycling Status of Progenitors, CFU-GM (P5, T = 24 hours): 0%
